Laboratory results taken from PubChem BioAssay AID2685 (National Center for Advancing Translational Sciences (NCATS), 2010).
Some of the results follow. The main result of the screen is listed elsewhere. These columns were measured beside it and carry no call. Compounds called inactive in the main read-out are mostly missing here. Words in brackets tell the shape of the fitted curve; partial curves, single points and poor fits give uncertain potencies.

Test: qHTS Assay for Lipid Storage Modulators in Drosophila S3 Cells;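 as to cell number change: cells counted by Cell Tracker Red CMTPX staining in the red channel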
Conditions: BODIPY lipid droplet fluorescence, 18-24 h; for cell number change: measured here: cell count max response, cells fed with added oleic acid
Method in brief: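 Laser-scanning cytometry quantifies lipid droplet accumulation (500–530 nm total intensity; droplet/cell object ratio) in oleic acid-fed (400 uM added) Drosophila S3 cells treated with a concentration series. 20 uM Triacsin C defined 100% inhibition.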

[1] = measured here: cell number channel AC50, cells fed with added oleic acid
[2] = measured here: lipid fluorescence (Fed channel) AC50, cells fed with added oleic acid

SMILES	cell number change	AC50 [1]	AC50 [2]
Cc1cc(C(=O)CSc2nnc3ccccn23)c(C)n1-c1ccccc1	83.3%	29.1 µM [rising, single point]	10.3 µM [rising, partial curve]
CCn1cc(C(=S)N2CCC(C(N)=O)CC2)c2ccccc21	30.5%	3.26 µM [falling, partial curve]	2.06 µM [falling, partial curve]
CCC(=O)Nc1ccc(NCc2cccs2)cc1	-8.14%	–	0.651 µM [falling, partial curve, poor fit]
Cc1cc(C)n(-c2ncnc3sc4c(c23)CCCC4)n1	-4.98%	–	2.59 µM [falling, partial curve, poor fit]
Cc1ccc(NC(=O)CN(C)C(=O)CNC(=O)c2sc3ccccc3c2Cl)cc1	39%	13 µM [rising, partial curve, poor fit]	16.4 µM [rising, partial curve, poor fit]
CCN1CN=C(NS(=O)(=O)c2ccc(C)cc2)NC1	-16.9%	0.0058 µM [falling, full curve, poor fit]	–
C=CCC1Cc2c(cccc2[N+](=O)[O-])C(CC=C)N1 (centres undefined)	-18.1%	7.31 µM [falling, partial curve, poor fit]	4.61 µM [falling, full curve]
CCOC(=O)C1CCN(C(=O)Nc2ccc(NC(=O)C3CCN(C(=O)OCC)CC3)cc2)CC1	-29.9%	–	3.26 µM [falling, full curve]
COC(=O)c1ccc(CSc2nnnn2C)o1	-33.8%	0.103 µM [falling, full curve, poor fit]	–
Cc1ccc(-n2c(CCc3ccccc3)nnc2SCC(=O)NCc2ccccc2)cc1C	-48.2%	0.731 µM [rising, partial curve]	6.51 µM [rising, single point]
CCCCOC(=O)Nc1nc2ccccc2s1	-5.2%	–	–
COc1ccc(-c2[nH]c(-c3ccc(F)cc3)nc2SCC(=O)NC2CCCC2)cc1	0.323%	–	–
N#Cc1nc(-c2ccc(F)cc2)oc1N1CCN(C(=O)c2ccco2)CC1	-36.3%	14.1 µM [falling, single point]	–
CCOC(=O)CCCNC(=O)CCNC(=O)c1ccc(OCCC(C)C)cc1	-61.3%	0.58 µM [falling, full curve, poor fit]	0.103 µM [falling, full curve]
CCOC(=O)N1CCN(C(=O)COc2cccc3c2CCN(Cc2ccc(F)cc2)C3=O)CC1	-15.9%	–	–
O=C(Oc1ccc(N2C(=O)CCC2=O)cc1)c1ccco1	-31.8%	3.66 µM [falling, full curve, poor fit]	3.66 µM [falling, full curve]
CCCCOC(=O)/C=C\C(=O)NC(N)=O	-17%	–	29.1 µM [falling, single point]
O=C(Cn1ncc2c3ccccc3n(Cc3ccccc3F)c2c1=O)N1CCN(c2ccccn2)CC1	-4.9%	–	0.58 µM [falling, single point]
C=CCC1(CC=C)CCCN1C(=O)c1cc(COc2ccccc2SC)on1	18.8%	–	–
COc1cccc(OCCSc2nc(N)cc(N)n2)c1	-172%	29.1 µM [falling, single point]	–
COc1ccc(S(=O)(=O)Nc2cccc(-c3ccc4nncn4n3)c2)cc1	33.9%	1.46 µM [rising, full curve]	2.91 µM [rising, full curve]

Some of these compounds in order of SMILES length, ascending:
SMILES	cell number change	AC50 [1]	AC50 [2]
CCCCOC(=O)Nc1nc2ccccc2s1	-5.2%	–	–
COC(=O)c1ccc(CSc2nnnn2C)o1	-33.8%	0.103 µM [falling, full curve, poor fit]	–
CCC(=O)Nc1ccc(NCc2cccs2)cc1	-8.14%	–	0.651 µM [falling, partial curve, poor fit]
COc1cccc(OCCSc2nc(N)cc(N)n2)c1	-172%	29.1 µM [falling, single point]	–
CCN1CN=C(NS(=O)(=O)c2ccc(C)cc2)NC1	-16.9%	0.0058 µM [falling, full curve, poor fit]	–
Cc1cc(C)n(-c2ncnc3sc4c(c23)CCCC4)n1	-4.98%	–	2.59 µM [falling, partial curve, poor fit]
O=C(Oc1ccc(N2C(=O)CCC2=O)cc1)c1ccco1	-31.8%	3.66 µM [falling, full curve, poor fit]	3.66 µM [falling, full curve]
CCn1cc(C(=S)N2CCC(C(N)=O)CC2)c2ccccc21	30.5%	3.26 µM [falling, partial curve]	2.06 µM [falling, partial curve]
Cc1cc(C(=O)CSc2nnc3ccccn23)c(C)n1-c1ccccc1	83.3%	29.1 µM [rising, single point]	10.3 µM [rising, partial curve]
C=CCC1(CC=C)CCCN1C(=O)c1cc(COc2ccccc2SC)on1	18.8%	–	–
COc1ccc(S(=O)(=O)Nc2cccc(-c3ccc4nncn4n3)c2)cc1	33.9%	1.46 µM [rising, full curve]	2.91 µM [rising, full curve]
Cc1ccc(-n2c(CCc3ccccc3)nnc2SCC(=O)NCc2ccccc2)cc1C	-48.2%	0.731 µM [rising, partial curve]	6.51 µM [rising, single point]
COc1ccc(-c2[nH]c(-c3ccc(F)cc3)nc2SCC(=O)NC2CCCC2)cc1	0.323%	–	–
CCOC(=O)N1CCN(C(=O)COc2cccc3c2CCN(Cc2ccc(F)cc2)C3=O)CC1	-15.9%	–	–
O=C(Cn1ncc2c3ccccc3n(Cc3ccccc3F)c2c1=O)N1CCN(c2ccccn2)CC1	-4.9%	–	0.58 µM [falling, single point]
CCOC(=O)C1CCN(C(=O)Nc2ccc(NC(=O)C3CCN(C(=O)OCC)CC3)cc2)CC1	-29.9%	–	3.26 µM [falling, full curve]

Remaining list, next part:

SMILES	cell number change	AC50 [1]	AC50 [2]
CCOC(=O)c1[nH]c(=O)[nH]c1CSCCO	-21.5%	–	–
COc1ccc(C2C(C(=O)c3sc(C)nc3C)=C(O)C(=O)N2CCN(C)C)cc1OC (centres undefined)	12.7%	–	5.8 µM [falling, single point]
Cc1ccc(C2C=C(c3ccccc3OC(F)F)Nc3ncnn32)cc1 (centres undefined)	–	0.13 µM [rising, full curve, poor fit]	0.13 µM [rising, full curve, poor fit]
CCCCCc1nc2c(c3c1CCCC3)CCCC2	6.94%	–	4.11 µM [falling, single point]
O=C1CC(c2ccccc2)=NN1c1nc(-c2ccccc2)cs1	6.23%	–	–
COc1ccc(C(=O)ON=C2CCN(c3ccc([N+](=O)[O-])cc3)CC2)cc1	-24.7%	–	16.4 µM [falling, partial curve]
COc1ccc(Cn2nnnc2C(CC(C)C)N2CCC(C(N)=O)CC2)cc1 (centres undefined)	-22.8%	–	0.731 µM [falling, full curve, poor fit]
Nc1ccc(NC(=O)Nc2ccc(N)cc2)cc1	0.595%	–	0.00517 µM [falling, full curve, poor fit]
C=CCn1c(SCC(=O)N(C)C)nc2cc(C(=O)O)ccc2c1=O	-6.16%	–	6.51 µM [rising, single point]
COc1cc2c(cc1OC)CN(Cc1ccc(C)cc1)CC2	12.2%	–	0.13 µM [rising, full curve, poor fit]
CCOC(=O)C1CCN(CC(=O)N2CCc3ccccc32)CC1	17.1%	–	29.1 µM [falling, single point]
CC(C)N(Cc1cnn(C)c1)Cc1nc(Cc2ccccc2Cl)no1	13.5%	–	29.1 µM [rising, single point]
O=C(COc1ccc2c(-c3ccccc3)cc(=O)oc2c1)NCC1CCC(C(=O)O)CC1 (centres undefined)	37.5%	0.00461 µM [rising, full curve, poor fit]	2.91 µM [rising, full curve]
CN1CCN(c2ccc(CNS(=O)(=O)c3ccc(Cl)cc3)cc2)CC1	-4.13%	–	0.00461 µM [falling, full curve, poor fit]
CCOC(=O)CNS(=O)(=O)c1cc(-c2nn(C)c(=O)c3ccccc23)ccc1C	18.4%	–	–
Cc1ccc(S(=O)(=O)N2CCN(C(=O)C(C)Cn3nc(C)c(C)c3C)CC2)cc1C (centres undefined)	-4.76%	–	–
COc1cccc(-n2c(CN3CCN(Cc4ccccc4)CC3)nc3ccc([N+](=O)[O-])cc3c2=O)c1	21.9%	–	–
Cc1cccc(NS(=O)(=O)c2ccc(C(=O)N3CC(C)OC(C)C3)cc2)c1C (centres undefined)	64%	8.2 µM [rising, partial curve]	–
CCCC(C(=O)NCc1ccc(OC)cc1)N(Cc1ccco1)C(=O)c1snc(C(N)=O)c1N (centres undefined)	-31%	7.31 µM [falling, full curve, poor fit]	–
COc1ccc(CCCC(=O)NCCc2ccccc2)c(C)c1	7.37%	–	–
COc1ccccc1CNC(=O)c1cc(S(=O)(=O)N2CCCCC2)c[nH]1	-18.9%	–	–

SMILES	cell number change	AC50 [1]	AC50 [2]
O=C(c1ccc2c(c1)OCCO2)C1CCN(C(=O)c2ccc(F)c(F)c2)CC1	-21.8%	–	2.59 µM [rising, single point]
C/C(=N\Nc1c(F)c(F)c(Br)c(F)c1F)c1ccncc1	-39.2%	16.4 µM [falling, single point]	1.64 µM [falling, partial curve]
O=C(Nc1cccc(CNCCc2c[nH]c3ccccc23)c1)c1ccccc1Cl	27.9%	–	11.6 µM [rising, partial curve]
Clc1ccc(CN2C3=NCCCN3c3ccccc32)cc1Cl	-44.7%	29.1 µM [falling, single point]	–
CCn1ccnc1CN(C)Cc1cn(-c2ccc(C)cc2)nc1-c1cccc(C)c1	-22.9%	–	29.1 µM [falling, single point]
O=C(Cc1c(Sc2ccccc2)c2ccccc2n1Cc1ccccc1)NCCO	–	–	16.4 µM [falling, partial curve]
COC(=O)c1ccccc1NC(=O)C1CC(=O)N(C2CCCCC2)C1 (centres undefined)	-9.99%	4.11 µM [falling, partial curve]	–
N#Cc1ccsc1NC(=O)CSc1ncnc2ccccc12	-41.7%	29.1 µM [falling, single point]	3.26 µM [rising, partial curve, poor fit]
CCOc1ccc(N=C2C(=O)Nc3ccc(C)c(Br)c32)cc1	-2.7%	–	–
CC(C)c1ccc(CCNC(=O)CCNS(=O)(=O)c2ccc(Br)cc2)cc1	9.23%	–	0.0731 µM [rising, full curve, poor fit]
CCOc1ccc(CSC(=N)N)cc1	-7.7%	–	–
O=[N+]([O-])c1cc(S(=O)(=O)N2CCOCC2)ccc1OCc1cccc(Cl)c1	-29.8%	–	2.31 µM [rising, partial curve]
C=CCNC(=O)CCCCC(=O)NCC=C	1.01%	–	–
Cc1ccc2c(c1)NCCO2	10.1%	–	4.11 µM [falling, partial curve, poor fit]
CCN(CC(=O)Nc1ccc(NC(C)=O)cc1)C(=O)CSCC(=O)Nc1ccc(C)cc1	5.71%	–	3.26 µM [falling, single point]
CCOC(=O)c1ccc(NC(=O)c2c(Cl)cc(C)nc2C)cc1	-25.2%	–	16.4 µM [falling, partial curve]
CCSc1cc(C)nc2c(-c3ccccc3)c(C)nn12	–	6.51 µM [rising, single point]	6.51 µM [rising, single point]
COC(=O)CCCNC(=O)c1ccc2[nH]c(C)c(C)c2c1	66.9%	20.6 µM [rising, single point]	16.4 µM [rising, partial curve]
CSCC[C@H](NC(=O)N1CCn2c1nc1ccccc12)C(=O)N1CCCCC1	-7.26%	–	29.1 µM [falling, single point]
